Experimental data from publication PMC6300487.
These are yes or no findings as the source states them, for the method shown. In cells and extracts the contact can be indirect. Here binding means that the protein was enriched with, or labelled near, the bait; the list need not be complete. Tags and fused reporters may be left off the sequences shown.

B1: RNA Binding Motif Protein 22 (protein, UniProt Q9NW64 1-420)
chain: MATSLGSNTYNRQNWEDADFPILCQTCLGENPYIRMTKEKYGKECKICARPFTVFRWCPGVRMRFKKTEVCQTCSKLKNVCQTCLLDLEYGLPIQVRDAGLSFKDDMPKSDVNKEYYTQNMEREISNSDGTRPVGMLGKATSTSDMLLKLARTTPYYKRNRPHICSFWVKGECKRGEECPYRHEKPTDPDDPLADQNIKDRYYGINDPVADKLLKRASTMPRLDPPEDKTITTLYVGGLGDTITETDLRNHFYQFGEIRTITVVQRQQCAFIQFATRQAAEVAAEKSFNKLIVNGRRLNVKWGRSQAARGKEKEKDGTTDSGIKLEPVPGLPGALPPPPAAEEEASANYFNLPPSGPPAVVNIALPPPPGIAPPPPPGFGPHMFHPMGPPPPFMRAPGPIHYPSQDPQRMGAHAGKHSSP
B2: Leucine Rich Repeat and Coiled-Coil Centrosomal Protein 1 (protein, UniProt Q9C099 1-1032)
chain: MEAAAAVVAAEAEVENEDGDSSCGDVCFMDKGLQSISELSLDSTLHAVNLHCNNISKIEAIDHIWNLQHLDLSSNQISRIEGLNTLTKLCTLNLSCNLITKVEGLEELINLTRLNVSYNHIDDLSGLIPLHGIKHKLRYIDLHSNRIDSIHHLLQCMVGLHFLTNLILEKDGDDNPVCRLPGYRAVILQTLPQLRILDCKNIFGEPVNLTEINSSQLQCLEGLLDNLVSSDSPLNISEDEIIDRMPVITAPIDELVPLEQFASTPSDAVLTSFMSVCQSSEPEKNNHENDLQNEIKLQKLDDQILQLLNETSNSIDNVLEKDPRPKRDTDITSESDYGNRKECNRKVPRRSKIPYDAKTIQTIKHHNKNYNSFVSCNRKMKPPYLKELYVSSSLANCPMLQESEKPKTEIIKVDQSHSEDNTYQSLVEQLDQEREKRWRAEQAENKLMDYIDELHKHANEKEDIHSLALLTTDRLKEIIFRERNSKGQLEVMVHKLQNEIKKLTVELMKAKDQQEDHLKHLRTLEKTLEKMERQKRQQQAAQIRLIQEVELKASAADREIYLLRTSLHREREQAQQLHQLLALKEQEHRKELETREFFTDADFQDALAKEIAKEEKKHEQMIKEYQEKIDVLSQQYMDLENEFRIALTVEARRFQDVKDGFENVATELAKSKHALIWAQRKENESSSLIKDLTCMVKEQKTKLAEVSKLKQETAANLQNQINTLEILIEDDKQKSIQIELLKHEKVQLISELAAKESLIFGLRTERKVWGHELAQQGSSLAQNRGKLEAQIESLSRENECLRKTNESDSDALRIKCKIIDDQTETIRKLKDCLQEKDEHIKRLQEKITEIEKCTQEQLDEKSSQLDEVLEKLERHNERKEKLKQQLKGKEVELEEIRKAYSTLNRKWHDKGELLCHLETQVKEVKEKFENKEKKLKAERDKSIELQKNAMEKLHSMDDAFKRQVDAIVEAHQAEIAQLANEKQKCIDSANLKVHQIEKEMRELLEETCKNKKTMEAKIKQLAFALNEIQQDM
B3: Regulator of non-sense transcripts 1 (protein, UniProt Q92900 1-1129)
chain: MSVEAYGPSSQTLTFLDTEEAELLGADTQGSEFEFTDFTLPSQTQTPPGGPGGPGGGGAGGPGGAGAGAAAGQLDAQVGPEGILQNGAVDDSVAKTSQLLAELNFEEDEEDTYYTKDLPIHACSYCGIHDPACVVYCNTSKKWFCNGRGNTSGSHIVNHLVRAKCKEVTLHKDGPLGETVLECYNCGCRNVFLLGFIPAKADSVVVLLCRQPCASQSSLKDINWDSSQWQPLIQDRCFLSWLVKIPSEQEQLRARQITAQQINKLEELWKENPSATLEDLEKPGVDEEPQHVLLRYEDAYQYQNIFGPLVKLEADYDKKLKESQTQDNITVRWDLGLNKKRIAYFTLPKTDSGNEDLVIIWLRDMRLMQGDEICLRYKGDLAPLWKGIGHVIKVPDNYGDEIAIELRSSVGAPVEVTHNFQVDFVWKSTSFDRMQSALKTFAVDETSVSGYIYHKLLGHEVEDVIIKCQLPKRFTAQGLPDLNHSQVYAVKTVLQRPLSLIQGPPGTGKTVTSATIVYHLARQGNGPVLVCAPSNIAVDQLTEKIHQTGLKVVRLCAKSREAIDSPVSFLALHNQIRNMDSMPELQKLQQLKDETGELSSADEKRYRALKRTAERELLMNADVICCTCVGAGDPRLAKMQFRSILIDESTQATEPECMVPVVLGAKQLILVGDHCQLGPVVMCKKAAKAGLSQSLFERLVVLGIRPIRLQVQYRMHPALSAFPSNIFYEGSLQNGVTAADRVKKGFDFQWPQPDKPMFFYVTQGQEEIASSGTSYLNRTEAANVEKITTKLLKAGAKPDQIGIITPYEGQRSYLVQYMQFSGSLHTKLYQEVEIASVDAFQGREKDFIILSCVRANEHQGIGFLNDPRRLNVALTRARYGVIIVGNPKALSKQPLWNHLLNYYKEQKVLVEGPLNNLRESLMQFSKPRKLVNTINPGARFMTTAMYDAREAIIPGSVYDRSSQGRPSSMYFQTHDQIGMISAGPSHVAAMNIPIPFNLVMPPMPPPGYFGQANGPAAGRGTPKGKTGRGGRQKNRFGLPGPSQTNLPNSQASQDVASQPFSQGALTQGYISMSQPSQMSQPGLSQPELSQDSYLGDEFKSQIDVALSQDSTYQGERAYQHGGVTGLSQY
B4: Ribosomal RNA-Processing Protein 44 (protein, UniProt Q9Y2L1 1-958)
chain: MLKSKTFLKKTRAGGVMKIVREHYLRDDIGCGAPGCAACGGAHEGPALEPQPQDPASSVCPQPHYLLPDTNVLLHQIDVLEDPAIRNVIVLQTVLQEVRNRSAPVYKRIRDVTNNQEKHFYTFTNEHHRETYVEQEQGENANDRNDRAIRVAAKWYNEHLKKMSADNQLQVIFITNDRRNKEKAIEEGIPAFTCEEYVKSLTANPELIDRLACLSEEGNEIESGKIIFSEHLPLSKLQQGIKSGTYLQGTFRASRENYLEATVWIHGDNEENKEIILQGLKHLNRAVHEDIVAVELLPKSQWVAPSSVVLHDEGQNEEDVEKEEETERMLKTAVSEKMLKPTGRVVGIIKRNWRPYCGMLSKSDIKESRRHLFTPADKRIPRIRIETRQASTLEGRRIIVAIDGWPRNSRYPNGHFVRNLGDVGEKETETEVLLLEHDVPHQPFSQAVLSFLPKMPWSITEKDMKNREDLRHLCICSVDPPGCTDIDDALHCRELENGNLEVGVHIADVSHFIRPGNALDQESARRGTTVYLCEKRIDMVPELLSSNLCSLKCDVDRLAFSCIWEMNHNAEILKTKFTKSVINSKASLTYAEAQLRIDSANMNDDITTSLRGLNKLAKILKKRRIEKGALTLSSPEVRFHMDSETHDPIDLQTKELRETNSMVEEFMLLANISVAKKIHEEFSEHALLRKHPAPPPSNYEILVKAARSRNLEIKTDTAKSLAESLDQAESPTFPYLNTLLRILATRCMMQAVYFCSGMDNDFHHYGLASPIYTHFTSPIRRYADVIVHRLLAVAIGADCTYPELTDKHKLADICKNLNFRHKMAQYAQRASVAFHTQLFFKSKGIVSEEAYILFVRKNAIVVLIPKYGLEGTVFFEEKDKPNPQLIYDDEIPSLKIEDTVFHVFDKVKVKIMLDSSNLQHQKIRMSLVEPQIPGISIPTDTSNMDLNGPKKKKMKLGK
B5: Ataxin 10 (protein, UniProt Q9UBB4 1-475)
chain: MAAPRPPPARLSGVMVPAPIQDLEALRALTALFKEQRNRETAPRTIFQRVLDILKKSSHAVELACRDPSQVENLASSLQLITECFRCLRNACIECSVNQNSIRNLDTIGVAVDLILLFRELRVEQESLLTAFRCGLQFLGNIASRNEDSQSIVWVHAFPELFLSCLNHPDKKIVAYSSMILFTSLNHERMKELEENLNIAIDVIDAYQKHPESEWPFLIITDLFLKSPELVQAMFPKLNNQERVTLLDLMIAKITSDEPLTKDDIPVFLRHAELIASTFVDQCKTVLKLASEEPPDDEEALATIRLLDVLCEMTVNTELLGYLQVFPGLLERVIDLLRVIHVAGKETTNIFSNCGCVRAEGDISNVANGFKSHLIRLIGNLCYKNKDNQDKVNELDGIPLILDNCNISDSNPFLTQWVIYAIRNLTEDNSQNQDLIAKMEEQGLADASLLKKVGFEVEKKGEKLILKSTRDTPKP
B6: Branched Chain Keto Acid Dehydrogenase E1, Alpha Polypeptide (protein, UniProt P12694 46-445)
chain: SSLDDKPQFPGASAEFIDKLEFIQPNVISGIPIYRVMDRQGQIINPSEDPHLPKEKVLKLYKSMTLLNTMDRILYESQRQGRISFYMTNYGEEGTHVGSAAALDNTDLVFGQYREAGVLMYRDYPLELFMAQCYGNISDLGKGRQMPVHYGCKERHFVTISSPLATQIPQAVGAAYAAKRANANRVVICYFGEGAASEGDAHAGFNFAATLECPIIFFCRNNGYAISTPTSEQYRGDGIAARGPGYGIMSIRVDGNDVFAVYNATKEARRRAVAENQPFLIEAMTYRIGHHSTSDDSSAYRSVDEVNYWDKQDHPISRLRHYLLSQGWWDEEQEKAWRKQSRRKVMEAFEQAERKPKPNPNLLFSDVYQEMPAQLRKQQESLARHLQTYGEHYPLDHFDK

The binders below were run against T1, SFB-tagged WWOX (WW domain-containing oxidoreductase) (human) (UniProt Q9NZC7) (assay: affinity purification with mass spectrometry; tandem affinity purification from lysate (NETN buffer) of HEK293T cells stably expressing C-terminally SFB-tagged WWOX: streptavidin beads, elution with 2 mg/ml biotin, then S protein beads; LC-MS/MS; two replicates; hits filtered by MUSE interaction score and CRAPome frequency).
T1 sequence: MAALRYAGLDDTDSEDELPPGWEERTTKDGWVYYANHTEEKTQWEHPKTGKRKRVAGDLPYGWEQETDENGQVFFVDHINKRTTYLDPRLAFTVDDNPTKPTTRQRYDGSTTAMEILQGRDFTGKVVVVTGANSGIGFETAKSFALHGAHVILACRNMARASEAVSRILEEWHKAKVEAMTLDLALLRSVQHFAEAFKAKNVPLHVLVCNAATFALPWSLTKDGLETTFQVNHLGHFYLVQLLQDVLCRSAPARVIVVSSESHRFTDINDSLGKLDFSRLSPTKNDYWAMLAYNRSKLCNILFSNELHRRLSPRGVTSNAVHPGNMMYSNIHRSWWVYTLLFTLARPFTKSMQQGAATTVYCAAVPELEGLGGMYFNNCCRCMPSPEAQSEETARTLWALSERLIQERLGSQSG

Row | Binder | binding
1 | B1 | binds
2 | B2 | binds
3 | B3 | binds
4 | B4 | binds
5 | B5 | binds
6 | B6 | binds
